# Reference: the supplement of paper PMC12067093, “Discovery and optimisation of a covalent ligand for TRIM25 and its application to targeted protein ubiquitination” (Chemical Science, 2025)
# Chains of the proteins cited; added tags and fusions are not shown. Lines headed by an entry give the natural chain unless they say otherwise; changes in a name come on top.
# UniProt Q5VT06: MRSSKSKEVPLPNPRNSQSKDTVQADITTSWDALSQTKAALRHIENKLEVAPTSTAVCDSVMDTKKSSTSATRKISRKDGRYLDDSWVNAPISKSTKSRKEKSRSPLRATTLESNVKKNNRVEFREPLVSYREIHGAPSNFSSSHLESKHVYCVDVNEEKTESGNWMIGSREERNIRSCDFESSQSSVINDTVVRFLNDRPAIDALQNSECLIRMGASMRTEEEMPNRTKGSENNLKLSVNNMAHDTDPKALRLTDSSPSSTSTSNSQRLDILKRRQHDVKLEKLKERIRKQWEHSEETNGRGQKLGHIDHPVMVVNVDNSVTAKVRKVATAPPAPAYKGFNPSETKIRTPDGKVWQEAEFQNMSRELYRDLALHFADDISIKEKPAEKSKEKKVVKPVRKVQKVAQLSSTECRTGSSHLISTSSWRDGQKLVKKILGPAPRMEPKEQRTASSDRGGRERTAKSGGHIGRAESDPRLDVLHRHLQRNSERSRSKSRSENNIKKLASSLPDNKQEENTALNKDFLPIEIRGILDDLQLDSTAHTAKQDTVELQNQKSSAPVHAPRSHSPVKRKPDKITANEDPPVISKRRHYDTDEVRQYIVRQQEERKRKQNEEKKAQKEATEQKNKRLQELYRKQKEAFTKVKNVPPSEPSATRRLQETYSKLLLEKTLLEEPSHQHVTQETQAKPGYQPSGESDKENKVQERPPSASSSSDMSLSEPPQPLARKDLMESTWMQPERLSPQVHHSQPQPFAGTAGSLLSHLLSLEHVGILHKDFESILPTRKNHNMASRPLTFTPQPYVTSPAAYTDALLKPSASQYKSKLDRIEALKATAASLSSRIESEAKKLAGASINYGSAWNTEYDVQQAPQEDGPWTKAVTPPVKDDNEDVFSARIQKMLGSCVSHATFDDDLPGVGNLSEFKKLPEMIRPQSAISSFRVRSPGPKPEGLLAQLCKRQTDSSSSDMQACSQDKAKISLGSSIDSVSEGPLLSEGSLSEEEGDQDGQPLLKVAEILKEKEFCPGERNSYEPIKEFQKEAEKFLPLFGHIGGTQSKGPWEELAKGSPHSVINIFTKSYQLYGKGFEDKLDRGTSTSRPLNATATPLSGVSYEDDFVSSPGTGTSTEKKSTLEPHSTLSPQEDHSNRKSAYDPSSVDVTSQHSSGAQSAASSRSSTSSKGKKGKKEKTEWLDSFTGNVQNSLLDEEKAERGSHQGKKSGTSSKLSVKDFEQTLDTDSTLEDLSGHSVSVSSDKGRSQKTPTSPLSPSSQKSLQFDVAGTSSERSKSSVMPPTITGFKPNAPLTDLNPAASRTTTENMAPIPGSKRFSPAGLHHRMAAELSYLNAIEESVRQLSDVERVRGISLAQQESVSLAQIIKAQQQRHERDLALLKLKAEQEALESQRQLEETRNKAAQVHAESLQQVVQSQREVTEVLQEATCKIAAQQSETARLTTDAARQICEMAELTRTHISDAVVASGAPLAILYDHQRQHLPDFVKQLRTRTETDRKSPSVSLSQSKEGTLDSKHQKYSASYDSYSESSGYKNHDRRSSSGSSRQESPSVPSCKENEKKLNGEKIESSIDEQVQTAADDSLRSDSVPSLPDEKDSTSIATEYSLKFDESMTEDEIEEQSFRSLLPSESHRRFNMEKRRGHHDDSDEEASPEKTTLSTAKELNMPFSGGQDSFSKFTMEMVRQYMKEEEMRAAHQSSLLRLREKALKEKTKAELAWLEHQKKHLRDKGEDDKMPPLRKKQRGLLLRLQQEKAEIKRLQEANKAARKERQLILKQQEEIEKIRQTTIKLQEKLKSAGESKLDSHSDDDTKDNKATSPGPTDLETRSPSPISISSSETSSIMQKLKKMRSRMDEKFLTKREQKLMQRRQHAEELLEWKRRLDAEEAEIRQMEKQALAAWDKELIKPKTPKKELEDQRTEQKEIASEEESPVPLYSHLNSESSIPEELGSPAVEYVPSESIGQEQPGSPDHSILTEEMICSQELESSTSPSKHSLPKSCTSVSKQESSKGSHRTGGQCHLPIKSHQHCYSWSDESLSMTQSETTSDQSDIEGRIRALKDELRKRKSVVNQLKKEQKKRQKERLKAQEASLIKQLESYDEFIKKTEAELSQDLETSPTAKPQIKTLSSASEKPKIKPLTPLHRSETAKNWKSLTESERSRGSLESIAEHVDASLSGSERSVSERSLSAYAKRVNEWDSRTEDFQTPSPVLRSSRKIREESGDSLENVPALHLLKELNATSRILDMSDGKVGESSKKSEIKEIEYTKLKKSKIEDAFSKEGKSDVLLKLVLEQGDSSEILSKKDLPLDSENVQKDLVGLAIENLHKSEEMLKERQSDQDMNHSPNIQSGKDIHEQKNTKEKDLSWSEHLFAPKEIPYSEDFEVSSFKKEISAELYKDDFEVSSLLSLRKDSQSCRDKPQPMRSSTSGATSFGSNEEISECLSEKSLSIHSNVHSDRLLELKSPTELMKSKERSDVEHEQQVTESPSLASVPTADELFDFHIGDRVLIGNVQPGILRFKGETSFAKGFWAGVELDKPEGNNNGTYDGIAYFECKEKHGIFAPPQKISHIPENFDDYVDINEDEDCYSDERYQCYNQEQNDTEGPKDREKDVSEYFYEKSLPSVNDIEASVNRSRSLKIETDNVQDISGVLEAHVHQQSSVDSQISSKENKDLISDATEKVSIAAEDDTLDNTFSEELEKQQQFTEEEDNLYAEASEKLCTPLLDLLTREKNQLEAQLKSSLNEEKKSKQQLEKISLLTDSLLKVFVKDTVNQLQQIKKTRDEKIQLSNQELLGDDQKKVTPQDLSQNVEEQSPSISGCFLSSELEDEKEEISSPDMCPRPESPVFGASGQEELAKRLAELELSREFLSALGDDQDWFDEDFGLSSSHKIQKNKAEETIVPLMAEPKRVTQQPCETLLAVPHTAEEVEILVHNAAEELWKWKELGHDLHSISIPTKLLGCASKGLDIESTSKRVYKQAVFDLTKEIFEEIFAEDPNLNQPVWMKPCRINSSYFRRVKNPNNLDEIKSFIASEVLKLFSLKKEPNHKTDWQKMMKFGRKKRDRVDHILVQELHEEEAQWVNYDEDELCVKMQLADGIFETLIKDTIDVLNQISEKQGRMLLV
# UniProt P34810: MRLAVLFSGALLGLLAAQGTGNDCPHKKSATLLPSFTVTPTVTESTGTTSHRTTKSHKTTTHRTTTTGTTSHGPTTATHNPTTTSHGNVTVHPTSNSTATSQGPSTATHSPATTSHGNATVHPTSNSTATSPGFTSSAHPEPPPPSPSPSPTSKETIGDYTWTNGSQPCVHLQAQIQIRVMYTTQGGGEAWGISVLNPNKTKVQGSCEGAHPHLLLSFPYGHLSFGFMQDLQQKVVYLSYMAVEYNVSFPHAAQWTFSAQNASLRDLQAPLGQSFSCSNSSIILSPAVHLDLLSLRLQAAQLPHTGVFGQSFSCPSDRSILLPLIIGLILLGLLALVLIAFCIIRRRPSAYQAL
# UniProt Q99467: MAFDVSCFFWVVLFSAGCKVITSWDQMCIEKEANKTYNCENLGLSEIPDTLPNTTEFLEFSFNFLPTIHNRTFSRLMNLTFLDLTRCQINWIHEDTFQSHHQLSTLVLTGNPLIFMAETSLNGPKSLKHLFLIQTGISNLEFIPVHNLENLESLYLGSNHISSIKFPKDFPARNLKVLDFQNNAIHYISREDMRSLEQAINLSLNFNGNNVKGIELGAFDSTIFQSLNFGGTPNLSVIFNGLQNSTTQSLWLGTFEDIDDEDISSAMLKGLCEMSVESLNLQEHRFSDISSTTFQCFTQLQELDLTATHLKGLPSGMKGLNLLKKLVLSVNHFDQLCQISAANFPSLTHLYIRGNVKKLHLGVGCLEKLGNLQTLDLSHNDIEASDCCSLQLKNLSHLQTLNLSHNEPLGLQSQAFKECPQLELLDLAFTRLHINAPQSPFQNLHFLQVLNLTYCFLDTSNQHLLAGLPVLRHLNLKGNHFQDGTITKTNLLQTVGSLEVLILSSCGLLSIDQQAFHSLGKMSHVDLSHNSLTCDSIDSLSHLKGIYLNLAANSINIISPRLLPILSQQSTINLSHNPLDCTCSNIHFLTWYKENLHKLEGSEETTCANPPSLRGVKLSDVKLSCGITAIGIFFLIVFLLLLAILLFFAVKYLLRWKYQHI
# UniProt Q13042, whole entry, looked up: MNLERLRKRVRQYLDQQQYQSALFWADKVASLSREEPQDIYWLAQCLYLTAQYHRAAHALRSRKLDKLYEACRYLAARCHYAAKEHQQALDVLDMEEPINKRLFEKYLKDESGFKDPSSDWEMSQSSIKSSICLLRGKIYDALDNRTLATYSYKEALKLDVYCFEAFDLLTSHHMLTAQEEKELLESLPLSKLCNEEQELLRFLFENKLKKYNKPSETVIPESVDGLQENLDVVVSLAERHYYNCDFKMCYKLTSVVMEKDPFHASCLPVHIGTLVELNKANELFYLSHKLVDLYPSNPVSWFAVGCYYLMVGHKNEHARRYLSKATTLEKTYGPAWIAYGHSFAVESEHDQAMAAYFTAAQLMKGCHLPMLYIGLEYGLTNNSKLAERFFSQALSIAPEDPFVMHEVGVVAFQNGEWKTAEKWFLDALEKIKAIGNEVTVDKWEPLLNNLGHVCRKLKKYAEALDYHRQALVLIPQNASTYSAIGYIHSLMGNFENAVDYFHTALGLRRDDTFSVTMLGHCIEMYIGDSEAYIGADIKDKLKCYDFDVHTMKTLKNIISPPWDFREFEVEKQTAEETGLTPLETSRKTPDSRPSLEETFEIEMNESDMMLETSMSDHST
# UniProt P30260, whole entry, looked up: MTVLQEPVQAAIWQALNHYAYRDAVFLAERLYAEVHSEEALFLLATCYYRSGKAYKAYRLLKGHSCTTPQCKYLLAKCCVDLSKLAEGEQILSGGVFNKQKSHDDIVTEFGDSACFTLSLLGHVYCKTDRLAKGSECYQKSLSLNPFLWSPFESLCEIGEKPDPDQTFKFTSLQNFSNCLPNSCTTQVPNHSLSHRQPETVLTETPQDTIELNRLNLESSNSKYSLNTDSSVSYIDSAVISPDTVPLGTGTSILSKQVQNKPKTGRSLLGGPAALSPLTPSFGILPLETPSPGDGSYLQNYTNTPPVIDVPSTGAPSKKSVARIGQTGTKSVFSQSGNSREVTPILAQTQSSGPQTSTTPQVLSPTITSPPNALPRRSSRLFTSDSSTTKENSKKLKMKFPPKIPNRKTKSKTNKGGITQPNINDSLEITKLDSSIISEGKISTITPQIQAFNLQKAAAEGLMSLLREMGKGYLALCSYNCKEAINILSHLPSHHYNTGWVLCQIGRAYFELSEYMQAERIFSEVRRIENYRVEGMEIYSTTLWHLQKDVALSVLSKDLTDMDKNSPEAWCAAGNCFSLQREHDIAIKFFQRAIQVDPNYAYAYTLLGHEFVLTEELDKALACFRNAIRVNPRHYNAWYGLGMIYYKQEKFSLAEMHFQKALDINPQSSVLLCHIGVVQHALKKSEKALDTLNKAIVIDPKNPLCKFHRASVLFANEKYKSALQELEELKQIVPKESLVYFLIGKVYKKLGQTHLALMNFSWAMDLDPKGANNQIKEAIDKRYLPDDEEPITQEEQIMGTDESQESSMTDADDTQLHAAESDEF
# UniProt Q92879: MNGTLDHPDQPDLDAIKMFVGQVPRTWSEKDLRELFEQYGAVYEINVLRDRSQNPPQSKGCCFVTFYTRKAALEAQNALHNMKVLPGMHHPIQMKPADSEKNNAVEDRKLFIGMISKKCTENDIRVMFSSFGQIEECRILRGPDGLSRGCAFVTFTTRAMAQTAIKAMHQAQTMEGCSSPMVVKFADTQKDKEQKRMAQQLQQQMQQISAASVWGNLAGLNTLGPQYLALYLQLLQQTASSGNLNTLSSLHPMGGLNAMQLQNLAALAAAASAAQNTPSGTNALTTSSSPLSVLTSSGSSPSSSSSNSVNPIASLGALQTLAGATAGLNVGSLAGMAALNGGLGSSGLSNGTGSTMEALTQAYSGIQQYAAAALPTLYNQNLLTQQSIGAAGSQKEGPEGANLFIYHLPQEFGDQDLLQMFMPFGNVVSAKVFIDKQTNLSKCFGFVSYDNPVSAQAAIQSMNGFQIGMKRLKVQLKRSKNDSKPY
# UniProt O75794: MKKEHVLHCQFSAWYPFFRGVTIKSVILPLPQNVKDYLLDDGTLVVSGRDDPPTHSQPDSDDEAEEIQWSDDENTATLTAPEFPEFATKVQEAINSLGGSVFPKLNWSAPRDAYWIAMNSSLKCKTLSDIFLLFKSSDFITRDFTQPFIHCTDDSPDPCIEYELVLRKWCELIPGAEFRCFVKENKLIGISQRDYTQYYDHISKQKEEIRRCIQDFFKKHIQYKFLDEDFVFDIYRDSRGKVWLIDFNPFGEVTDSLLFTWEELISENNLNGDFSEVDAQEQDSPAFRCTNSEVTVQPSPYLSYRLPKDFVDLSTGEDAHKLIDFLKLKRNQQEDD
# The other results are listed elsewhere or left out.
# Compound: CC1Cc2ccccc2N1C(=O)C1CCCN(C1)C(=O)CCl (mixture of isomers) [TRIM25 ligand 11 (diastereomer mixture)]
# Test: probe-labelled cysteine peptide fold change vs DMSO (competition) (log2 fold change); higher = less target engagement (more negative = stronger competition)
# Conditions: THP-1, incubation time: 4 h
# 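Further: competitive chemoproteomic profiling in live THP-1 cells with an iodoacetamide desthiobiotin (IA-DTB) probe, comparing probe-labelled peptide intensities in compound-treated cells against DMSO-treated controls.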
Target,probe-labelled cysteine peptide fold change (10 µM),probe-labelled cysteine peptide fold change (50 µM)
CEP350_Q5VT06_1557_QESPSVPSCK (UniProt Q5VT06),-0.19,-0.158
CDK13_Q14004_644_CLLADLPLPPELPGGDDLSK (UniProt Q14004),0.35,-0.317
CD68_P34810_314_LQAAQLPHTGVFGQSFSCPSDR (UniProt P34810),-0.078,-0.0764
CD180_Q99467_419_ECPQLELLDLAFTR (UniProt Q99467),-0.123,-0.275
CDC16_Q13042_46_EEPQDIYWLAQCLYLTAQYHR (UniProt Q13042),0.246,-0.0564
CEP41_Q9BYV8_240_IIILYDDDERLASQAATTMCER (UniProt Q9BYV8),-0.212,-0.185
CDC27_P30260_673_ALDINPQSSVLLCHIGVVQHALKK (UniProt P30260),-0.0964,-0.0276
CELF1_Q92879_177_AMHQAQTMEGCSSPMVVK (UniProt Q92879),-0.222,-0.255
CERCAM_Q5T4B2_391_GEVGCFLSHYSIWEEVVAR (UniProt Q5T4B2),0.0829,0.041
CDC37_Q16543_64_KVAECQR (UniProt Q16543),-0.149,0.1
CDC27_P30260_137_GSECYQK (UniProt P30260),-0.0786,-0.0611
CEP192_Q8TEP8_396_QGAECPHQNK (UniProt Q8TEP8),-0.0896,-0.188
CDC27_P30260_503_EAINILSHLPSHHYNTGWVLCQIGR (UniProt P30260),0.0327,-0.0128
CDC123_O75794_170_WCELIPGAEFR (UniProt O75794),-0.0198,-0.0653
